No constants are given. Whether binding was seen depends on the method and setting. Binding can be weak; no strength is given. For some assays here: Tags and fused reporters may be left off the sequences shown.
Columns and labels:
[1] = target: mCh-tensin1-cBAK (human) (UniProt Q9HBL0); experiment: mitochondrial targeting and recruitment assay
[2] = target: mCh-tensin3-FL-cBAK (human) (UniProt Q68CZ2); experiment: mitochondrial targeting and recruitment assay

Amino acid sequences for entries named in this document (tags omitted). A change or cut given only in a name is not applied to a line headed by its entry.
UniProt P26039: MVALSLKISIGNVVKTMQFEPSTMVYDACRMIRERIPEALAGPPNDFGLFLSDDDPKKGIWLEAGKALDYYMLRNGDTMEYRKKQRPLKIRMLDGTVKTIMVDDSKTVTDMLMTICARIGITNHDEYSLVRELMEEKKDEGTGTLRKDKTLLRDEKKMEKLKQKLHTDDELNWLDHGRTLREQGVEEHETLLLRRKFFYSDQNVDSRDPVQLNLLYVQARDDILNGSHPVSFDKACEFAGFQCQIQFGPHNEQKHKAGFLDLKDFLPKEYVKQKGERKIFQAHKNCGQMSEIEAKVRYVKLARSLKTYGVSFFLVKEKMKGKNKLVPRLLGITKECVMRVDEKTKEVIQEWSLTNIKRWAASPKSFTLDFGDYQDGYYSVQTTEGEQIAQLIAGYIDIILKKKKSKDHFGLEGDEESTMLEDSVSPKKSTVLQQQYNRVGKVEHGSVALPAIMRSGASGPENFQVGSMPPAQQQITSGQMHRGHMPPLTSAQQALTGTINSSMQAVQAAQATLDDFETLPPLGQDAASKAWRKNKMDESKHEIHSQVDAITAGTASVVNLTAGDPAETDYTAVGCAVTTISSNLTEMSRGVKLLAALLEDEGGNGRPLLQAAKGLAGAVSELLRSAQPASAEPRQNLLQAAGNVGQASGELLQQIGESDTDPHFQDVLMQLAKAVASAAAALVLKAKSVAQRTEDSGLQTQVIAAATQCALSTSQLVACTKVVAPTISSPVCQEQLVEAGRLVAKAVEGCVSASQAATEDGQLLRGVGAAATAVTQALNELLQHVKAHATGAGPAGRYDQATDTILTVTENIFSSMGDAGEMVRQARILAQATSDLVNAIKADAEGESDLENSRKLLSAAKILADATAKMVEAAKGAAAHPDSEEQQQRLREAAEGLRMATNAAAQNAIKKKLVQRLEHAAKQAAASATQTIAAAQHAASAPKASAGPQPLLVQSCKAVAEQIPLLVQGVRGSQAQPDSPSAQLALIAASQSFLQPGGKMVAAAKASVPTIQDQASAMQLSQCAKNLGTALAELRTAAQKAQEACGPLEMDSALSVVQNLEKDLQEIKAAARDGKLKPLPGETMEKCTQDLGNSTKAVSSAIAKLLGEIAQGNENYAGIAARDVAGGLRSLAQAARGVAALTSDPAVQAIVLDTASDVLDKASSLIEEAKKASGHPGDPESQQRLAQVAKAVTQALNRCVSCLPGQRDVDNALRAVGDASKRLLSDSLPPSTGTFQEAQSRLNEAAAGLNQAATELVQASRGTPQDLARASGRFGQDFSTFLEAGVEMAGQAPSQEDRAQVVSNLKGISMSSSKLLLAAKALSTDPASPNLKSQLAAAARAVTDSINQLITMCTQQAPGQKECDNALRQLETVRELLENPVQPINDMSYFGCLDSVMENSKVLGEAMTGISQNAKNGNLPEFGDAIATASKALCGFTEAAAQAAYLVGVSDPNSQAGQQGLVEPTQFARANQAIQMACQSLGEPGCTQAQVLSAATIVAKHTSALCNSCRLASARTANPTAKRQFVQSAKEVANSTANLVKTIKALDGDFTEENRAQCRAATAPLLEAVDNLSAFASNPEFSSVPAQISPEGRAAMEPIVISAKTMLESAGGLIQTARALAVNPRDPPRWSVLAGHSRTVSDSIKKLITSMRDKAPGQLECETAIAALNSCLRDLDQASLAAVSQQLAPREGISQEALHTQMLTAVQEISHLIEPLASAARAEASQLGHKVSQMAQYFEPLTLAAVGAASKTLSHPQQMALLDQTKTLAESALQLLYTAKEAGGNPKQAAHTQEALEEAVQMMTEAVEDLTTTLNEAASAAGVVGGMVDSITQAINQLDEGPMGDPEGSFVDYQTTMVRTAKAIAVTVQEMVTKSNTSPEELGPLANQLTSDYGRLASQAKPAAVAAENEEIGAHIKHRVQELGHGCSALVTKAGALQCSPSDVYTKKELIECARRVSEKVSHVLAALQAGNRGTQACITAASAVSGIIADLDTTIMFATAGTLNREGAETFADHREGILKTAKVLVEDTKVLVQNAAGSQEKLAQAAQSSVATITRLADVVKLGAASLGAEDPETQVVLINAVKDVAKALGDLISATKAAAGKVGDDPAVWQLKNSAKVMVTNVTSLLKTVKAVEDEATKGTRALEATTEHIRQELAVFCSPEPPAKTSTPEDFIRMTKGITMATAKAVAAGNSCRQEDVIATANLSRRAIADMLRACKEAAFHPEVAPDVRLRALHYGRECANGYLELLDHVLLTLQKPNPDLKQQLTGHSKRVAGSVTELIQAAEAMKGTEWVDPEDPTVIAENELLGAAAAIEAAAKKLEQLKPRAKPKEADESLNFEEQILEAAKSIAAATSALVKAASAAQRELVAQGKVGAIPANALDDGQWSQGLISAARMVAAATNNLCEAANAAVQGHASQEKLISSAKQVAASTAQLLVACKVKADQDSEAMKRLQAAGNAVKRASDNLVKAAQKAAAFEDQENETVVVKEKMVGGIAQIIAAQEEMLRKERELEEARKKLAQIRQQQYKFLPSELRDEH
UniProt Q9Y4G6: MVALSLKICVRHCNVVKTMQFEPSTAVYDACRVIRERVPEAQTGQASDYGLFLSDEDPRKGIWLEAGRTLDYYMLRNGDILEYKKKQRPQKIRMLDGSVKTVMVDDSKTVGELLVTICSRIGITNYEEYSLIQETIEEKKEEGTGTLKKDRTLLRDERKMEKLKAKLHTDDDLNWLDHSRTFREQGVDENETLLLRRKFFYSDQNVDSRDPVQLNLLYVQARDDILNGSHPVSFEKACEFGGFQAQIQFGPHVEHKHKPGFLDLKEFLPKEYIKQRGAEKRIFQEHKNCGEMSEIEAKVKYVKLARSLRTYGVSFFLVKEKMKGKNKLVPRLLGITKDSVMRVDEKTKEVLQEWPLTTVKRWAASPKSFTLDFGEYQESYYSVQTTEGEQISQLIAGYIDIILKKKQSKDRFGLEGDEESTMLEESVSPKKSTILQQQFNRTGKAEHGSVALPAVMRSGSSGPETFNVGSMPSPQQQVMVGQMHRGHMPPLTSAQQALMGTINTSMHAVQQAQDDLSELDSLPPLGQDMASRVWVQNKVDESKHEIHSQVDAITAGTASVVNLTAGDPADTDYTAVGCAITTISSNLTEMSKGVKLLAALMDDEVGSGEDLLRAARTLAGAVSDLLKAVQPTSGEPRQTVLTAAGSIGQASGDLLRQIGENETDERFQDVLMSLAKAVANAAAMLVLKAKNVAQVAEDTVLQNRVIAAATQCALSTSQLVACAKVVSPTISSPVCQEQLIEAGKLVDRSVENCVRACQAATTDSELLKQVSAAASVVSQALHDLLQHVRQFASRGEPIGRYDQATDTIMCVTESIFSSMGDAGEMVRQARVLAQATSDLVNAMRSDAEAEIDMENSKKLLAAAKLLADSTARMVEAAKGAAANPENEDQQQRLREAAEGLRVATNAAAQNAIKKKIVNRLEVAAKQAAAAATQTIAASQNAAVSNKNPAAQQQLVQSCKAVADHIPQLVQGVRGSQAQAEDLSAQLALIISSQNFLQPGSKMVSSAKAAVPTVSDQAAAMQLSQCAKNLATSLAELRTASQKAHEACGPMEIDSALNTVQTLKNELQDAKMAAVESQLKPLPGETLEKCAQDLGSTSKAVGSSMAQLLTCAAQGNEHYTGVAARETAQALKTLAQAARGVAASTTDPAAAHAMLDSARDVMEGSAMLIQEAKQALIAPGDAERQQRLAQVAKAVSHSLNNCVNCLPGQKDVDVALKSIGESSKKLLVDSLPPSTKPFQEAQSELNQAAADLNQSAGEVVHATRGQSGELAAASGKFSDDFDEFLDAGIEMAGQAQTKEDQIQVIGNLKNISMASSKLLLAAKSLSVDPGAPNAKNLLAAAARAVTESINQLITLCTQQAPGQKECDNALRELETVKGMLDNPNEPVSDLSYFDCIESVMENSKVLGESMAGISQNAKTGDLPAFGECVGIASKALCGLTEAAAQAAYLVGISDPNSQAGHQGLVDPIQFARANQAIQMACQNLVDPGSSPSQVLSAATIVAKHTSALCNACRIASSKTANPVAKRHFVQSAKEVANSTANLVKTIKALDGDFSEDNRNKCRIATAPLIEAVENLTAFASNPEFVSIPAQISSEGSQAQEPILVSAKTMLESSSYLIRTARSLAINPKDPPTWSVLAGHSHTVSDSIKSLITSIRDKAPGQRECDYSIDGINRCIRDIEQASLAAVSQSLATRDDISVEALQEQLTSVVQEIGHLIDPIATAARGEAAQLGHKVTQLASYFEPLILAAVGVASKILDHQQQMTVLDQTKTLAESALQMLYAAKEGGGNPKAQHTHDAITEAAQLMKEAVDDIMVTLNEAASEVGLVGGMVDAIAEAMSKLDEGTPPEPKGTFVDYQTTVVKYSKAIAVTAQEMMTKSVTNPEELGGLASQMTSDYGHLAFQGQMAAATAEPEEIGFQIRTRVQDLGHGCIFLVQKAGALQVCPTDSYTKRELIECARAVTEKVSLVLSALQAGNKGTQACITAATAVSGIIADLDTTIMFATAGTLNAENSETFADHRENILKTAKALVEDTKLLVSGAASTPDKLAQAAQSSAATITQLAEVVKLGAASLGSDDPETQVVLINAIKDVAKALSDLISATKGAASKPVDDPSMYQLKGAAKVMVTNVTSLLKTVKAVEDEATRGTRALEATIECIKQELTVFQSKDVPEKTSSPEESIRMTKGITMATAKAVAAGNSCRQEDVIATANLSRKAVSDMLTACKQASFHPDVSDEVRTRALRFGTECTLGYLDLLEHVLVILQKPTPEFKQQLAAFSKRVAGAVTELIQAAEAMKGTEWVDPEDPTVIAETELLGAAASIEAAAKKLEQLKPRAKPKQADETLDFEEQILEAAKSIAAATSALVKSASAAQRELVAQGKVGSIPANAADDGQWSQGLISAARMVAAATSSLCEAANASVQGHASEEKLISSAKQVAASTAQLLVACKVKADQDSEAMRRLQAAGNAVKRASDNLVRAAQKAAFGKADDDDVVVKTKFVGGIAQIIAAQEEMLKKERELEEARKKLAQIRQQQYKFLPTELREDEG
UniProt Q64727: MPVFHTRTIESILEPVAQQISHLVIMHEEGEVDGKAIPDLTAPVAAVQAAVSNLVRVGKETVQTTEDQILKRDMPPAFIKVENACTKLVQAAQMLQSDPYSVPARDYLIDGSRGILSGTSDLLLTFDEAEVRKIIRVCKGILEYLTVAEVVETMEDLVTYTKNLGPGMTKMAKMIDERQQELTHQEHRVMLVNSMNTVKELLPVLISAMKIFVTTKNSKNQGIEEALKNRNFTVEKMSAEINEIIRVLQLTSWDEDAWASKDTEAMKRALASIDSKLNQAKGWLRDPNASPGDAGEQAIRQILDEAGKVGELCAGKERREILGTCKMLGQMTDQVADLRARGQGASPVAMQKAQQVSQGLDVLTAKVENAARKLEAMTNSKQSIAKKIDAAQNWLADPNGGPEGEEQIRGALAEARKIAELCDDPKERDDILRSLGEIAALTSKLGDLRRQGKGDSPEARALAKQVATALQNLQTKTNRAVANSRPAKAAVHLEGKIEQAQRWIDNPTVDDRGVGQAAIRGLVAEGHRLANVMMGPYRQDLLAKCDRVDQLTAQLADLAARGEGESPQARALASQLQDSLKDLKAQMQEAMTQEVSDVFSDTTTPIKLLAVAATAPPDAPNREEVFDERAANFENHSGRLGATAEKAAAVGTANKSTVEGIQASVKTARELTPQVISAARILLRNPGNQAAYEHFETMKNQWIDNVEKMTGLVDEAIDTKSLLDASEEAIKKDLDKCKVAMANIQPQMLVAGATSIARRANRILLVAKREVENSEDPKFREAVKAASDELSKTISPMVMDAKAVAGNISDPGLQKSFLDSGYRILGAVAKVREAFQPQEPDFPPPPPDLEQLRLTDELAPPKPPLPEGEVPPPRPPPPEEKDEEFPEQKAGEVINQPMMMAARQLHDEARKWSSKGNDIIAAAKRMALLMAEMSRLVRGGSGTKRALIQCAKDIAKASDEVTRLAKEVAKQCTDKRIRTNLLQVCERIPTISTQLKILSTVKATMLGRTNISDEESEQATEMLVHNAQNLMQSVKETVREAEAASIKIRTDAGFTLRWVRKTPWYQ

| binding [1] | binding [2] | Molecule |
| --- | --- | --- |
| binds | – | GFP-FAK (from UniProt Q05397 1-1052) |
| binds | – | GFP-ILK (from UniProt Q13418 1-452) |
| binds | – | GFP-paxillin (from UniProt P49023 1-591) |
| binds | – | GFP-talin1 (from UniProt P26039 1-2541) |
| binds | – | GFP-talin2 (from UniProt Q9Y4G6 1-2542) |
| – | binds | GFP-talinΔR1-R10 (from UniProt P26039) |
| no binding | – | active β1 integrin (9EG7 staining), endogenous (from UniProt P09055 21-798) (receptor) |
| binds | – | endogenous paxillin (from UniProt Q8VI36 1-591) |
| binds | – | endogenous talin1 (from UniProt P26039 1-2541) |
| binds | – | endogenous vinculin (from UniProt Q64727 1-1066) |
| binds | – | GFP-KANK2 (protein, UniProt Q63ZY3 1-851) MAQVLHVPAPFPGTPGPASPPAFPAKDPDPPYSVETPYGYRLDLDFLKYVDDIEKGHTLRRVAVQRRPRLSSLPRGPGSWWTSTESLCSNASGDSRHSAYSYCGRGFYPQYGALETRGGFNPRVERTLLDARRRLEDQAATPTGLGSLTPSAAGSTASLVGVGLPPPTPRSSGLSTPVPPSAGHLAHVREQMAGALRKLRQLEEQVKLIPVLQVKLSVLQEEKRQLTVQLKSQKFLGHPTAGRGRSELCLDLPDPPEDPVALETRSVGTWVRERDLGMPDGEAALAAKVAVLETQLKKALQELQAAQARQADPQPQAWPPPDSPVRVDTVRVVEGPREVEVVASTAAGAPAQRAQSLEPYGTGLRALAMPGRPESPPVFRSQEVVETMCPVPAAATSNVHMVKKISITERSCDGAAGLPEVPAESSSSPPGSEVASLTQPEKSTGRVPTQEPTHREPTRQAASQESEEAGGTGGPPAGVRSIMKRKEEVADPTAHRRSLQFVGVNGGYESSSEDSSTAENISDNDSTENEAPEPRERVPSVAEAPQLRPAGTAAAKTSRQECQLSRESQHIPTAEGASGSNTEEEIRMELSPDLISACLALEKYLDNPNALTERELKVAYTTVLQEWLRLACRSDAHPELVRRHLVTFRAMSARLLDYVVNIADSNGNTALHYSVSHANFPVVQQLLDSGVCKVDKQNRAGYSPIMLTALATLKTQDDIETVLQLFRLGNINAKASQAGQTALMLAVSHGRVDVVKALLACEADVNVQDDDGSTALMCACEHGHKEIAGLLLAVPSCDISLTDRDGSTALMVALDAGQSEIASMLYSRMNIKCSFAPMSDDESPTSSSAEE |

Reference: doi:10.1101/2021.07.16.452612
